Literature values in patent publication US20030022912A1, “Rapid-onset medicament for treatment of sexual dysfunction” (priority 2001, published 2003).

Conditions: human subjects; sublingual administration; drug as free base except where a footnote notes a salt

Row | Compound | sublingual Tmax
1 | CN1CC[C@]23c4c5ccc(O)c4O[C@H]2[C@@H](O)C=C[C@H]3[C@H]1C5 [morphine] | 48 min
2 | CN1[C@@H]2C[C@@H](OC(=O)[C@H](CO)c3ccccc3)C[C@H]1[C@@H]1O[C@@H]12 [scopolamine] | 50 min
